Measured values taken from paper PMC8874669.
These are yes or no findings as the source states them, for the method shown. In cells and extracts the contact can be indirect. Some results given as binding are weak or reduced against the parent protein; the word gives no strength.

By UniProt entry, the sequences of proteins in these tests, tags left out. Residues count along the entry.
UniProt Q8IVB5: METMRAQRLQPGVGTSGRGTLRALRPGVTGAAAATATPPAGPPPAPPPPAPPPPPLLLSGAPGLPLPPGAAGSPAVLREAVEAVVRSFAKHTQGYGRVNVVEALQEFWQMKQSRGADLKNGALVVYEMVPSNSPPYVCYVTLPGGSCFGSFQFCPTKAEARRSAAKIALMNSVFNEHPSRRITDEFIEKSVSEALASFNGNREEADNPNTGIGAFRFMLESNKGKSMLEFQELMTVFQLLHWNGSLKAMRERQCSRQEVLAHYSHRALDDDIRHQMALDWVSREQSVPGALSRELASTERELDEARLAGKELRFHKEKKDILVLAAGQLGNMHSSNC
UniProt Q96JQ0, residues 43-3298: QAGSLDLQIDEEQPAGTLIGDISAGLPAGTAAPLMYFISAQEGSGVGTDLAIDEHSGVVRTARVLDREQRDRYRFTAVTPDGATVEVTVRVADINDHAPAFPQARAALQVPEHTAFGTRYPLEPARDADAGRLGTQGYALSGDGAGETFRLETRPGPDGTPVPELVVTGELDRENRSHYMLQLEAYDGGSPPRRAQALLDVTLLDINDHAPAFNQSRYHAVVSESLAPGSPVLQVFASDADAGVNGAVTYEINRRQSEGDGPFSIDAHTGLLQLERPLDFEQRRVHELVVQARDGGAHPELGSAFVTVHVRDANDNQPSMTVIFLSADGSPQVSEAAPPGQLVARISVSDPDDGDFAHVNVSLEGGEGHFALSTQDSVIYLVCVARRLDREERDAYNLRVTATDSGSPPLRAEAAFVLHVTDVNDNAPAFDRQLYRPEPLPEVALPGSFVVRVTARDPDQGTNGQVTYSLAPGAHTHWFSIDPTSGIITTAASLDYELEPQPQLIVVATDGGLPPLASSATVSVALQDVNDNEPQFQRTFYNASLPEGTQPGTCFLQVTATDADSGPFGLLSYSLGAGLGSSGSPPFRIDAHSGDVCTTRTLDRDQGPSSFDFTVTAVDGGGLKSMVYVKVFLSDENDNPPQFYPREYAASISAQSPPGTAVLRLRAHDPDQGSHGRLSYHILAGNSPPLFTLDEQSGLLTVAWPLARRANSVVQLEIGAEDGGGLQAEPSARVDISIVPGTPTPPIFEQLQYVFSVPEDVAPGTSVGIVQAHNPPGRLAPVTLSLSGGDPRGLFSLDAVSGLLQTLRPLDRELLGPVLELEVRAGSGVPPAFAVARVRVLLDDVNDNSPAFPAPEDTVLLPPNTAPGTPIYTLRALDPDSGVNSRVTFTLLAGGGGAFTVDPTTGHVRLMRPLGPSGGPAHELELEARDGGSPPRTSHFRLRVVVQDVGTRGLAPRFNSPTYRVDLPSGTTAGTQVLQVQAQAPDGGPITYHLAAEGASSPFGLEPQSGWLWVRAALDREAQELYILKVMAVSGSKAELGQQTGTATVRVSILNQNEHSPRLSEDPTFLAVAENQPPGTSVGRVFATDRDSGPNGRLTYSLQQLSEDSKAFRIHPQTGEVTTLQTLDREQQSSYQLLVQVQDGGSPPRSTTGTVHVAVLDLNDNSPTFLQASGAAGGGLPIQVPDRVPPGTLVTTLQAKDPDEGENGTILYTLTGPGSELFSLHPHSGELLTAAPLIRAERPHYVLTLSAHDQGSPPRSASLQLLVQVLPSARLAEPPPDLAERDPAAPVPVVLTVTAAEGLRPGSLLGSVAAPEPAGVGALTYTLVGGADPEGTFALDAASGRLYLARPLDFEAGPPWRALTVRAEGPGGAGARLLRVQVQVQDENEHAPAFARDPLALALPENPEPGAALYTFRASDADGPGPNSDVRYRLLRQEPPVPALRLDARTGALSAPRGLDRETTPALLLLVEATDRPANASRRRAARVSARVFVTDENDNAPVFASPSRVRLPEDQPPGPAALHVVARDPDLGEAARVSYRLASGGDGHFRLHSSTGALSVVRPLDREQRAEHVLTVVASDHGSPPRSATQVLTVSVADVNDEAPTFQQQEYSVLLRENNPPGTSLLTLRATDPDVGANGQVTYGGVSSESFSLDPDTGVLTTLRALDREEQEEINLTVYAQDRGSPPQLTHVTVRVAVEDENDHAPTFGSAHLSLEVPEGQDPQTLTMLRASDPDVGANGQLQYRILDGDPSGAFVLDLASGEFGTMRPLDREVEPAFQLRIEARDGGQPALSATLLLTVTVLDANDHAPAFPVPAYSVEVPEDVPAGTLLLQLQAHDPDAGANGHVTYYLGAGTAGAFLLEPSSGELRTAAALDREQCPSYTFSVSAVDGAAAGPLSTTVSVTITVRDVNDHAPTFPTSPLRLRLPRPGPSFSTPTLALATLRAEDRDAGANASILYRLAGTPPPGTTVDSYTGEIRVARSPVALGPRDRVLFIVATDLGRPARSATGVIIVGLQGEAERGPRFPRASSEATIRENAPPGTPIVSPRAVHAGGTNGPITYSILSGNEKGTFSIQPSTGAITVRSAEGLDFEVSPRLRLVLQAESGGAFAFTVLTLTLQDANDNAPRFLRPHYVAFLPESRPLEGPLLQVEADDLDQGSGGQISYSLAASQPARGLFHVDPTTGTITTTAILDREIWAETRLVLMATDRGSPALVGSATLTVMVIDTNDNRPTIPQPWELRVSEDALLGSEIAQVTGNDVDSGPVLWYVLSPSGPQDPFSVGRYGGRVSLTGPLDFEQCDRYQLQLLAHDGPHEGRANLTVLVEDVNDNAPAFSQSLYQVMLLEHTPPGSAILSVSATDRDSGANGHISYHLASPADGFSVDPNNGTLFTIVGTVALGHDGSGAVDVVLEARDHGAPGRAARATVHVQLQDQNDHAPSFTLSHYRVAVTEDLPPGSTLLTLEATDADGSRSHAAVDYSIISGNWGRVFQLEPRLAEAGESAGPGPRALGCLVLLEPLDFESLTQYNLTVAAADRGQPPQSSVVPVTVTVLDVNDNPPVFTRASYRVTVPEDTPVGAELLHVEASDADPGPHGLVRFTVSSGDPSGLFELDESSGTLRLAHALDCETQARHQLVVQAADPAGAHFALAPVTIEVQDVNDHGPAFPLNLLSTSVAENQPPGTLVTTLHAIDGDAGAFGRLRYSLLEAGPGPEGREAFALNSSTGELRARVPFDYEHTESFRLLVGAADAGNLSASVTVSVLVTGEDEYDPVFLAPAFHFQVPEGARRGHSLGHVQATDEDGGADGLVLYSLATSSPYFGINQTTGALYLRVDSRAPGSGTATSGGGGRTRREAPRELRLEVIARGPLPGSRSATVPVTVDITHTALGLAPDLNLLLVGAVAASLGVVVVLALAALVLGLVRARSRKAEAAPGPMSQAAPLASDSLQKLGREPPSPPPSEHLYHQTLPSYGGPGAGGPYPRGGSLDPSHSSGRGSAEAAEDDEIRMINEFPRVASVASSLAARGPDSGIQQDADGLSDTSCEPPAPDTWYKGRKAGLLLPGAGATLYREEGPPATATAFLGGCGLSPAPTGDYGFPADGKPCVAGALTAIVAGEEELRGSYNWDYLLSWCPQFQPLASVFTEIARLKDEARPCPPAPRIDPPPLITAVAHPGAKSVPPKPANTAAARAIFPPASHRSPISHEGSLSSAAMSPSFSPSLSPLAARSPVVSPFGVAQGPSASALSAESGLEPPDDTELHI

Biological target: LIX1L (Myc-DDK-tagged) (human) (UniProt Q8IVB5)
Test: co-IP; HEK293T co-transfected with DCHS1-V5 and LIX1L-FLAG; RIPA lysate; anti-FLAG M2 magnetic beads overnight at 4 °C; washes in TBS; blot with anti-V5 and anti-FLAG

DCHS1 with V5 tag (from UniProt Q96JQ0 43-3298)
binding: binds
